The values below come from the supplement of paper PMC4604168 (melanoma cell lines).

The list shows a part of the results. Repeats are few or missing, and single values can be far off.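 Imaging used 1,536-well plates; nuclei positive for cleaved PARP by antibody were divided by total DNA-stained nuclei to yield the apoptosis fraction. Doses for screening kept most cells viable, and cell lines differ markedly in resting and induced cleaved-PARP levels.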

This assay relates to LB2518-MEL. Put plainly: cleaved PARP positive nuclei fraction relative to DMSO control; melanoma cells; higher = more apoptosis. As to conditions: library dose: low library concentration; 72 h.
Consider `CN(NC(=O)CC(=O)NN(C)C(=S)c1ccccc1)C(=S)c1ccccc1` + CCCCCCCCCCCC1=C(O)C(=O)C=C(O)C1=O [Embelin] (first compound 0.006 µM, partner dose 1.2 µM), for which the “cleaved PARP positive nuclei fraction” value is 98.9%. As for `COc1ccc2c(c1)CCC1C2CCC2(C)C(NCCCCCCN3C(=O)C=CC3=O)CCC12` (stereo unspecified) + O=c1cc(-c2cccc3c2Sc2ccccc2S3)oc(N2CCOCC2)c1 [KU55933] (first compound 0.4 µM, partner dose 1 µM), the “cleaved PARP positive nuclei fraction” value was determined as 66.1%. Then `COc1ccc2c(c1)CCC1C2CCC2(C)C(NCCCCCCN3C(=O)C=CC3=O)CCC12` (stereo unspecified) + Oc1nc(-c2ccc(C(F)(F)F)cc2)nc2c1CSCC2 [XAV939] (first compound 0.4 µM, partner dose 2 µM), with 85.4%; and `O=C(O)c1ccc(-c2c[nH]c3ncc(-c4ccccc4)cc23)cc1C1CCCC1` + COc1ccc2c(c1)CCC1C2CCC2(C)C(NCCCCCCN3C(=O)C=CC3=O)CCC12 [U73122] (first compound 0.16 µM, partner dose 0.4 µM), with 145%. For `CCc1ccc(CCOc2ccc(CC3SC(=O)NC3=O)cc2)nc1` (stereo unspecified) [pioglitazone] + Oc1nc(-c2ccc(C(F)(F)F)cc2)nc2c1CSCC2 [XAV939] (first compound 2 µM, partner dose 2 µM) the value was 87.2%; for `COc1cc2c(Oc3ccc4[nH]c(C)cc4c3F)ncnc2cc1OCCCN1CCCC1` [cediranib] + COc1cc2ncnc(Nc3ccc(Oc4ccccc4)cc3)c2cc1OC [SrcI1] (first compound 0.4 µM, partner dose 2 µM), 86.9%; for `N#Cc1c(O)c2c(-c3ccc(-c4ccccc4O)cc3)csc2[nH]c1=O` + COc1cc2ncnc(Nc3ccc(Oc4ccccc4)cc3)c2cc1OC [SrcI1] (first compound 2 µM, partner dose 2 µM), 146%. For `CN(NC(=O)CC(=O)NN(C)C(=S)c1ccccc1)C(=S)c1ccccc1` + CC(C)CCN1c2nc(Nc3cc(F)c(O)c(F)c3)ncc2N(C)C(=O)C1C [BID1870] (first compound 0.006 µM, partner dose 0.2 µM) the value was 154%. In the case of `CCc1ccc(CCOc2ccc(CC3SC(=O)NC3=O)cc2)nc1` (stereo unspecified) [pioglitazone] + N#Cc1c(O)c2c(-c3ccc(-c4ccccc4O)cc3)csc2[nH]c1=O [A769662] (first compound 2 µM, partner dose 2 µM), the “cleaved PARP positive nuclei fraction” value is 83.3%.

Consider `Oc1nc(-c2ccc(C(F)(F)F)cc2)nc2c1CSCC2` + CCCCCCCCCCCC1=C(O)C(=O)C=C(O)C1=O [Embelin] (first compound 2 µM, partner dose 1.2 µM), for which the “cleaved PARP positive nuclei fraction” value stood at 79.8%. With `CCN(CC)CCCCNc1ncc2cc(-c3cc(OC)cc(OC)c3)c(NC(=O)NC(C)(C)C)nc2n1` + Cn1cc(/C=C2\C(=O)Nc3cccnc32)c2ccccc21 [GW441756] (first compound 0.1 µM, partner dose 0.4 µM), the “cleaved PARP positive nuclei fraction” value was found to be 174%.

In the case of `CCc1ccc(CCOc2ccc(CC3SC(=O)NC3=O)cc2)nc1` (stereo unspecified) [pioglitazone] + Cn1cc(/C=C2\C(=O)Nc3cccnc32)c2ccccc21 [GW441756] (first compound 2 µM, partner dose 0.4 µM), the “cleaved PARP positive nuclei fraction” value was determined as 86.2%. For `COc1ccc(COc2ccc(Cc3cnc(N)nc3N)cc2OC)cc1` + COc1cc2ncnc(Nc3ccc(Oc4ccccc4)cc3)c2cc1OC [SrcI1] (first compound 1 µM, partner dose 2 µM) the value was 146%. Then `O=S(=O)(c1ccccc1)N(CC(F)(F)F)c1ccc(C(O)(C(F)(F)F)C(F)(F)F)cc1` + COc1cc2ncnc(Nc3ccc(Oc4ccccc4)cc3)c2cc1OC [SrcI1] (first compound 1.4 µM, partner dose 2 µM), with 209%; and `COc1ccc2c(c1)CCC1C2CCC2(C)C(NCCCCCCN3C(=O)C=CC3=O)CCC12` (stereo unspecified) + Cn1cc(/C=C2\C(=O)Nc3cccnc32)c2ccccc21 [GW441756] (first compound 0.4 µM, partner dose 0.4 µM), with 85.3%; and `CN(NC(=O)CC(=O)NN(C)C(=S)c1ccccc1)C(=S)c1ccccc1` + Cc1cc([N+](=O)[O-])ccc1NS(=O)(=O)c1cc(Cl)ccc1Cl [FH535] (first compound 0.006 µM, partner dose 1 µM), with 210%. `N#Cc1c(O)c2c(-c3ccc(-c4ccccc4O)cc3)csc2[nH]c1=O` + c1cc(-c2cnn3cc(-c4ccc(OCCN5CCCCC5)cc4)cnc23)ccn1 [Dorsomorphin] (first compound 2 µM, partner dose 0.4 µM): the “cleaved PARP positive nuclei fraction” value was found to be 135%. For `CCc1ccc(CCOc2ccc(CC3SC(=O)NC3=O)cc2)nc1` (stereo unspecified) [pioglitazone] + COc1ccc(COc2ccc(Cc3cnc(N)nc3N)cc2OC)cc1 [GW2580] (first compound 2 µM, partner dose 1 µM) the value was 62.2%; for `COc1cc2c(Oc3ccc4[nH]c(C)cc4c3F)ncnc2cc1OCCCN1CCCC1` [cediranib] + CCc1ccc(CCOc2ccc(CC3SC(=O)NC3=O)cc2)nc1 [pioglitazone] (first compound 0.4 µM, partner dose 2 µM), 169%; for `COc1ccc(-c2ccc3c(N4CCOCC4)nc(N4C[C@@H](C)O[C@@H](C)C4)nc3n2)cc1CO` + COc1cc2ncnc(Nc3ccc(Oc4ccccc4)cc3)c2cc1OC [SrcI1] (first compound 0.02 µM, partner dose 2 µM), 160%. Then `O=C(O)c1ccc(-c2c[nH]c3ncc(-c4ccccc4)cc23)cc1C1CCCC1` + O=S(=O)(c1ccccc1)N(CC(F)(F)F)c1ccc(C(O)(C(F)(F)F)C(F)(F)F)cc1 [T0901317] (first compound 0.16 µM, partner dose 1.4 µM), with 155%; and `COc1ccc(-c2ccc3c(N4CCOCC4)nc(N4C[C@@H](C)O[C@@H](C)C4)nc3n2)cc1CO` + CCN(CC)CCCCNc1ncc2cc(-c3cc(OC)cc(OC)c3)c(NC(=O)NC(C)(C)C)nc2n1 [PD173074] (first compound 0.02 µM, partner dose 0.1 µM), with 139%; and `Oc1cc(-c2nc(-c3ccccc3)[nH]c2-c2ccncc2)ccc1Cl` + O=C1NC(=O)/C(=C/c2ccc(-c3ccc(F)cc3O)o2)S1 [AS252424] (first compound 0.2 µM, partner dose 1 µM), with 163%. Then `CCc1ccc(CCOc2ccc(CC3SC(=O)NC3=O)cc2)nc1` (stereo unspecified) [pioglitazone] + O=C(Nc1ccccc1)c1cc([N+](=O)[O-])ccc1Cl [GW9662] (first compound 2 µM, partner dose 2 µM), with 100%; and `COc1ccc2c(c1)CCC1C2CCC2(C)C(NCCCCCCN3C(=O)C=CC3=O)CCC12` (stereo unspecified) + O=C(O)C(=O)Nc1sc2c(c1C(=O)O)CCNC2 [TCS401] (first compound 0.4 µM, partner dose 1.66667 µM), with 87%; and `CN(C)S(=O)(=O)c1ccc2c(c1)/C(=C/c1cc3c([nH]1)CCCC3)C(=O)N2` + COc1cc(N2CCC(N3CCN(C)CC3)CC2)ccc1Nc1ncc(Cl)c(Nc2ccccc2S(=O)(=O)C(C)C)n1 [NVP-TAE684] (first compound 0.4 µM, partner dose 0.08 µM), with 84.4%.

With `CN(C)S(=O)(=O)c1ccc2c(c1)/C(=C/c1cc3c([nH]1)CCCC3)C(=O)N2` + N#Cc1c(O)c2c(-c3ccc(-c4ccccc4O)cc3)csc2[nH]c1=O [A769662] (first compound 0.4 µM, partner dose 2 µM), the “cleaved PARP positive nuclei fraction” value was 58%. Then `COc1ccc2c(c1)CCC1C2CCC2(C)C(NCCCCCCN3C(=O)C=CC3=O)CCC12` (stereo unspecified) + CC(C)CCN1c2nc(Nc3cc(F)c(O)c(F)c3)ncc2N(C)C(=O)C1C [BID1870] (first compound 0.4 µM, partner dose 0.2 µM), with 195%. Then `CCc1ccc(CCOc2ccc(CC3SC(=O)NC3=O)cc2)nc1` (stereo unspecified) [pioglitazone] + Oc1cc(-c2nc(-c3ccccc3)[nH]c2-c2ccncc2)ccc1Cl [L779450] (first compound 2 µM, partner dose 0.2 µM), with 108%; and `CCc1ccc(CCOc2ccc(CC3SC(=O)NC3=O)cc2)nc1` (stereo unspecified) [pioglitazone] + CC(C)CCN1c2nc(Nc3cc(F)c(O)c(F)c3)ncc2N(C)C(=O)C1C [BID1870] (first compound 2 µM, partner dose 0.2 µM), with 90.3%; and `CN(NC(=O)CC(=O)NN(C)C(=S)c1ccccc1)C(=S)c1ccccc1` + O=c1cc(-c2cccc3c2Sc2ccccc2S3)oc(N2CCOCC2)c1 [KU55933] (first compound 0.006 µM, partner dose 1 µM), with 79.9%. In the case of `O=C(O)c1ccc(-c2c[nH]c3ncc(-c4ccccc4)cc23)cc1C1CCCC1` + Oc1nc(-c2ccc(C(F)(F)F)cc2)nc2c1CSCC2 [XAV939] (first compound 0.16 µM, partner dose 2 µM), the “cleaved PARP positive nuclei fraction” value worked out at 61.6%. Take `COc1ccc(COc2ccc(Cc3cnc(N)nc3N)cc2OC)cc1` + COc1cc(N2CCC(N3CCN(C)CC3)CC2)ccc1Nc1ncc(Cl)c(Nc2ccccc2S(=O)(=O)C(C)C)n1 [NVP-TAE684] (first compound 1 µM, partner dose 0.08 µM): the “cleaved PARP positive nuclei fraction” value was 83.9%. For `COc1ccc2c(c1)CCC1C2CCC2(C)C(NCCCCCCN3C(=O)C=CC3=O)CCC12` (stereo unspecified) + c1cc(-c2cnn3cc(-c4ccc(OCCN5CCCCC5)cc4)cnc23)ccn1 [Dorsomorphin] (first compound 0.4 µM, partner dose 0.4 µM) the value was 38%. Take `NCC(=O)Nc1ccc(-n2nc(C(F)(F)F)cc2-c2ccc3c(ccc4ccccc43)c2)cc1` + COc1ccc(COc2ccc(Cc3cnc(N)nc3N)cc2OC)cc1 [GW2580] (first compound 1 µM, partner dose 1 µM): the “cleaved PARP positive nuclei fraction” value was 77.9%.

`COc1cc2ncnc(Nc3ccc(Oc4ccccc4)cc3)c2cc1OC` + COc1cc(N2CCC(N3CCN(C)CC3)CC2)ccc1Nc1ncc(Cl)c(Nc2ccccc2S(=O)(=O)C(C)C)n1 [NVP-TAE684] (first compound 2 µM, partner dose 0.08 µM): the “cleaved PARP positive nuclei fraction” value came to 65.4%.
